Source: patent US20120220564A1, “SELECTIVE CALCIUM CHANNEL MODULATORS” (Zalicus Pharmaceuticals Ltd., priority 2009, published 2012)
The structures given here were assigned with low confidence; some may be wrong.

Amino acid sequences for entries named in this document (tags omitted).
UniProt O95180, whole entry: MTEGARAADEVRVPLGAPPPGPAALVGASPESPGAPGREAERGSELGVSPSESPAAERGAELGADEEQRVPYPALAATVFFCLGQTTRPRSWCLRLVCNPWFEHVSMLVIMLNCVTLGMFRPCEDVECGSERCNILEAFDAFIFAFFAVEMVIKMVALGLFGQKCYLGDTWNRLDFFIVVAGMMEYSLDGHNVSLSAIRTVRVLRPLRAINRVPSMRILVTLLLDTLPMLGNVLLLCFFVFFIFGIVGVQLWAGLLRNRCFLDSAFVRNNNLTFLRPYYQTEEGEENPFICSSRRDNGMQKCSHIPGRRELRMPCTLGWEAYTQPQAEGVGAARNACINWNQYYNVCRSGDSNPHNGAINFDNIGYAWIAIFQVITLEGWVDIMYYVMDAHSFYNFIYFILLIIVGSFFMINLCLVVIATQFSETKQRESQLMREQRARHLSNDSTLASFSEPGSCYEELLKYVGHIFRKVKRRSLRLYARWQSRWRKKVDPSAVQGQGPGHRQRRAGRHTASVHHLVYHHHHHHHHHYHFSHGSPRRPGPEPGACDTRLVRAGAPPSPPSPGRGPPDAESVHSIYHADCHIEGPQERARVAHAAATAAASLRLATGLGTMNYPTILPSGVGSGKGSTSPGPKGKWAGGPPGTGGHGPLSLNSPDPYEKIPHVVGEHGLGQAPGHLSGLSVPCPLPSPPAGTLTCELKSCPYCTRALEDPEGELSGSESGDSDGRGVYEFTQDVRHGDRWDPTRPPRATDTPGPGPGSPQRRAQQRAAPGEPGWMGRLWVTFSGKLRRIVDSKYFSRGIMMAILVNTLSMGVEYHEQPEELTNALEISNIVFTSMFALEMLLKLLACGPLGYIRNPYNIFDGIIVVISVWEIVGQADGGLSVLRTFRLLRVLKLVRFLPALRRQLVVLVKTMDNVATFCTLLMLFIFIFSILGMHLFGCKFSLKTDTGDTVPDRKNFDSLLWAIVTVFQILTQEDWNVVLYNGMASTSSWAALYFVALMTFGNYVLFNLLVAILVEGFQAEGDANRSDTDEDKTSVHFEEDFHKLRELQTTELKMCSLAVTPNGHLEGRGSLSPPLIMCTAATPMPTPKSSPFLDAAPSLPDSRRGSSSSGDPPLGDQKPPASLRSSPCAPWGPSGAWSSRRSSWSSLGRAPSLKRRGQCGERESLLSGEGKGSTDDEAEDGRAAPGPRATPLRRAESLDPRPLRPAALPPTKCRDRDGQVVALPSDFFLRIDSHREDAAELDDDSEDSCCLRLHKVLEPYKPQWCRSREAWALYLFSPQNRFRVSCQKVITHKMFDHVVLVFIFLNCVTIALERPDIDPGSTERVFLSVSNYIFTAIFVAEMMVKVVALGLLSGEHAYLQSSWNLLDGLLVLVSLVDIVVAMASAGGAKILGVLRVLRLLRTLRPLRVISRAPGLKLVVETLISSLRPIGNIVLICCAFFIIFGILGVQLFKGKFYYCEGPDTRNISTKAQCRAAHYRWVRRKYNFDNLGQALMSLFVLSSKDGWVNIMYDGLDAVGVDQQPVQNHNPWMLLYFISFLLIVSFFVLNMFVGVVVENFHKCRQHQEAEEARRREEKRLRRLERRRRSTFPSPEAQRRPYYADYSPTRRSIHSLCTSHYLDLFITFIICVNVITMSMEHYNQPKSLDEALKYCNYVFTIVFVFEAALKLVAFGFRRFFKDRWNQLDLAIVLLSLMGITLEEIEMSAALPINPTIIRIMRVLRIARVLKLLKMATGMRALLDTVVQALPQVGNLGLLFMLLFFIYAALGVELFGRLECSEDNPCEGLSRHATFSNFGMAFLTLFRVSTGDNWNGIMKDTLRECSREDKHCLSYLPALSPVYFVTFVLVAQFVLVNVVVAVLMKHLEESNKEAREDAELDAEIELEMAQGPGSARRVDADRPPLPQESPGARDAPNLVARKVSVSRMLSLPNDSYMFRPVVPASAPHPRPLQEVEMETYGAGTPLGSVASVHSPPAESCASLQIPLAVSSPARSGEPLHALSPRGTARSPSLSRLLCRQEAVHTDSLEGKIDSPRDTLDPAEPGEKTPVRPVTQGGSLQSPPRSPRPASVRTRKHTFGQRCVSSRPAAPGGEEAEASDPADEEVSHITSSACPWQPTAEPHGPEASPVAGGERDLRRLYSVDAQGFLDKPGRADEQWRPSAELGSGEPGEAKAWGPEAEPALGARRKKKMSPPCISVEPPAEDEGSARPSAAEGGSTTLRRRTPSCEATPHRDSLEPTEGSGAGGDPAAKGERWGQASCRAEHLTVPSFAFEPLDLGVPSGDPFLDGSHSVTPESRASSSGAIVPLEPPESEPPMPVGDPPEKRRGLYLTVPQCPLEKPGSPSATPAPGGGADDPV

Biological target: α1H (CaV 3.2) (Homo sapiens, UniProt O95180)
Assay: T-type calcium channel block, whole cell patch clamp
Settings: read-out: T-type Calcium Channel Block α1H (CaV 3.2) IC50; HEK cells, mainly non-inactivated protocol; values above 10,000 nM represented as 10000
Description: T-type calcium channel blocking activity was assayed in human embryonic kidney cells, HEK 293 (Invitrogen), stably transfected with the T-type calcium channel subunits. Briefly, cells were cultured in Dulbecco's modified eagle medium (DMEM) supplemented with 10% fetal bovine serum, 200 U/ml penicillin, and 0.2 mg/mL streptomycin at 37° C. with 5% CO2. At 85% confluency, cells were split with 0.25% trypsin/1 mM EDTA and plated at 10% confluency on glass coverslips. At 12 hours, the medium was replaced, and the cells stably transfected using a standard calcium phosphate protocol and the appropriate calcium channel cDNA's. Fresh DMEM was supplied, and the cells transferred to 28° C./5% CO2. Cells were incubated for 1 to 2 days prior to whole cell recording.
Standard patch-clamp techniques were employed to identify blockers of T-type currents. Briefly, previously described HEK cell lines stably expressing human α1G, α1H and α1I T-type channels were used for all the recordings (passage #: 4-20, 37° C., 5% CO2). […] Data were analyzed using Clampfit (Axon Instruments) and SigmaPlot 4.0 (Jandel Scientific). […]
Test compounds were dissolved in external solution, 0.1-0.01% DMSO. […] In Table 4, empty cells indicate that inhibition by the compound was not detected.

`O=C(NCC1CCN(C(=O)[C@@H]2CCCCN2)CC1)Nc1cc(C(F)(F)F)cc(C(F)(F)F)c1` gave an IC50 of 1110 nM.
